Measurements from PMC6510816.
These are yes or no findings as the source states them, for the method shown. For some of these results: Binding seen in cells or lysates may run through a third protein. Some entries that bind do so weakly or less than the wild type. One block for each substance: values may come before it.

Sequences of proteins named here, by UniProt entry; tags and fusion partners are left off. A change or cut given only in a name is not applied to a line headed by its entry.
UniProt P28482: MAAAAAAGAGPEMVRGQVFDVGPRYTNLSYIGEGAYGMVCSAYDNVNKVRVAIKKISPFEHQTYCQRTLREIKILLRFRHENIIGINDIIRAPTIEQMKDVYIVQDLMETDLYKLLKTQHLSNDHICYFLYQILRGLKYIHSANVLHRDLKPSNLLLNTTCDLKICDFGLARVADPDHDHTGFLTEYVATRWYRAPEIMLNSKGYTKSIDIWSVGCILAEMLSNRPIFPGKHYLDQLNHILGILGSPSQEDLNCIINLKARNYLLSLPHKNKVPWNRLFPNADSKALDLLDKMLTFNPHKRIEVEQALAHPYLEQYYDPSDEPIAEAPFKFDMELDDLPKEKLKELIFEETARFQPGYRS
UniProt P63104: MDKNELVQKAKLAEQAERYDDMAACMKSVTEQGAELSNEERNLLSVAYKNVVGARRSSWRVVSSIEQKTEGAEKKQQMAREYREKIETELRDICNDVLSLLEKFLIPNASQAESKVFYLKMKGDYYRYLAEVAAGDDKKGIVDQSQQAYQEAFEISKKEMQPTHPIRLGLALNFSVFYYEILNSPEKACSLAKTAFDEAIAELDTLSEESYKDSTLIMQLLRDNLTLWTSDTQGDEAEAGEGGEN
UniProt P46937: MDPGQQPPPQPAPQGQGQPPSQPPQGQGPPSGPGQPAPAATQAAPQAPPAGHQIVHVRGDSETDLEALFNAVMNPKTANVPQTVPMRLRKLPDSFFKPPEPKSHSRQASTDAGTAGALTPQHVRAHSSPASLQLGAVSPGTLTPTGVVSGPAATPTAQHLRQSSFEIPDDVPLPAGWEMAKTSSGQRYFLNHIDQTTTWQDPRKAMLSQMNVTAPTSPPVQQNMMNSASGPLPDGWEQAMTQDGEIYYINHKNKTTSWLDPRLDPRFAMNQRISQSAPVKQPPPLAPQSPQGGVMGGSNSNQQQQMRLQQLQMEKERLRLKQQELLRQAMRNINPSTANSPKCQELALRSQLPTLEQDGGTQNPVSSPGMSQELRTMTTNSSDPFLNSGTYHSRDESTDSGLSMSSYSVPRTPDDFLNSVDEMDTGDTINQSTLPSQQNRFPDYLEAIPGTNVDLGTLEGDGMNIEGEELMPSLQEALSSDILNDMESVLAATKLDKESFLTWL
UniProt Q16665: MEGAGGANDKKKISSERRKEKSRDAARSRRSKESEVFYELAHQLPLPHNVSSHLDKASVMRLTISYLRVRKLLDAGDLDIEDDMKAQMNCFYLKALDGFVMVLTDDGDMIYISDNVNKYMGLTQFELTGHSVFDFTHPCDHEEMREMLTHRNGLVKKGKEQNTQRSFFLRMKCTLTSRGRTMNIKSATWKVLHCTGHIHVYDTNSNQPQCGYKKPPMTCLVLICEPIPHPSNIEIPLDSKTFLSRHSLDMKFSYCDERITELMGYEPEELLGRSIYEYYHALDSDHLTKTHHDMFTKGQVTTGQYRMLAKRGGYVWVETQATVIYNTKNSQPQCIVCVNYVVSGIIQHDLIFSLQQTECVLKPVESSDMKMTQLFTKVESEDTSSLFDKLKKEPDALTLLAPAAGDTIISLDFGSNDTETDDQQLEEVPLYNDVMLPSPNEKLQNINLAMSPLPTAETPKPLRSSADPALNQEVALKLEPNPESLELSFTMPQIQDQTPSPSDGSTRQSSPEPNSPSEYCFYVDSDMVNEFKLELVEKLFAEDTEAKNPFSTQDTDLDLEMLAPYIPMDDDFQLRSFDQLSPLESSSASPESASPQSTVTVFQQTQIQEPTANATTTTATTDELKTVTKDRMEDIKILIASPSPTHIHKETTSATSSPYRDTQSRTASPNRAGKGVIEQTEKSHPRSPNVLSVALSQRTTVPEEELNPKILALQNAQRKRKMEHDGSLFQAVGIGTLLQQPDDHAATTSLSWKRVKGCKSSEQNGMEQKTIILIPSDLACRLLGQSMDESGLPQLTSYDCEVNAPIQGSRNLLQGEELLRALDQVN
UniProt Q9GZV5: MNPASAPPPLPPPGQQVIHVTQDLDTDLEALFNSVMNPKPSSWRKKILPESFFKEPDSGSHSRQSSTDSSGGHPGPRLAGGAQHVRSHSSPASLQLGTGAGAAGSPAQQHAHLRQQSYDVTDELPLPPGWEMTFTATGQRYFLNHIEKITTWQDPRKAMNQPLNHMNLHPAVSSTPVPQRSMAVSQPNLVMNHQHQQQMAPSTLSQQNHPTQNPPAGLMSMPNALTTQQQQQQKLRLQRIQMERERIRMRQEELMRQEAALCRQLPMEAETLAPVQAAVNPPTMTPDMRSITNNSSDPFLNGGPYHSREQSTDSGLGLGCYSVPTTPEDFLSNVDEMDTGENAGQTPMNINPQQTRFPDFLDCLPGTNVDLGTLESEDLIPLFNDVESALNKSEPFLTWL

Legend:
[1] = target: purified GST-ERK2 (UniProt P28482); assay: pull-down; immunoprecipitates of Flag-tagged wild-type 14-3-3ζ from hypoxia-stimulated SW-1990 cells incubated with 100 ng purified GST or GST fusion protein in kinase buffer (50 mM ATP, 150 mM NaCl, 1 mM DTT, 0.5 mM EDTA), 30 min at 30 °C; glutathione agarose beads; both purified
[2] = target: Flag-tagged mutant 14-3-3ζ S37A (human) (UniProt P63104); assay: co-IP; SW-1990 cell lysates in RIPA buffer, protein A/G-sepharose beads overnight at 4 °C, washes with 300 mM NaCl, 0.5% NP-40; normoxia or hypoxia (6 h), also CoCl2, 5 μmol/L BAY 11-7085, 20 μmol/L U0126 or ERK2 siRNA
[3] = target: Yes-associated protein (YAP), endogenous (human (endogenous in SW-1990)) (UniProt P46937); assay: co-IP; nuclear fractions of hypoxia-stimulated SW-1990 cells after depletion of ERK2 with siRNA; IP of YAP, blot for HIF-1α
[4] = target: Yes-associated protein (YAP), endogenous (human (endogenous in SW-1990)) (UniProt P46937); assay: condition: only e14-3-3ζ-depleted cells reconstituted with mutant 14-3-3ζ S37A; co-IP; nuclear YAP and HIF-1α in sh.14-3-3ζ SW-1990 cells reconstituted with mutant 14-3-3ζ S37A, under hypoxia
[5] = target: Yes-associated protein (YAP), endogenous (human (endogenous in SW-1990)) (UniProt P46937); assay: co-IP; nuclear fractions of hypoxia-stimulated SW-1990 (S-1) cells; IP of Myc or of YAP, western blot; also with Flag-14-3-3ζ expression, serum stimuli, ERK2 siRNA (TEAD4 panel), or sh.14-3-3ζ cells reconstituted with wild-type 14-3-3ζ
[6] = target: endogenous 14-3-3ζ (human (endogenous in SW-1990)) (UniProt P63104); assay: co-IP; as the co-IP of lysates, cells under hypoxia stimuli (Supplemental Fig. S2e)
[7] = target: endogenous 14-3-3ζ (human (endogenous in SW-1990)) (UniProt P63104); assay: co-IP; SW-1990 cell lysates in RIPA buffer, protein A/G-sepharose beads overnight at 4 °C, washes with 300 mM NaCl, 0.5% NP-40; normoxia or hypoxia (6 h), also CoCl2, 5 μmol/L BAY 11-7085, 20 μmol/L U0126 or ERK2 siRNA

binding [1]: binds
Substance: Flag-tagged wild-type 14-3-3ζ (from UniProt P63104 1-245)

binding [2]: binds
Substance: Yes-associated protein (YAP), endogenous (from UniProt P46937 1-504)

binding [4]: no binding
binding [5]: binds
Substance: Hypoxia-inducible factor 1α (HIF-1α), endogenous (from UniProt Q16665 1-826)
binding [3]: no binding (condition: after depletion of ERK2 with siRNA)

binding [7]: binds
Substance: WWTR1 (WW domain-containing transcription regulator protein 1) (from UniProt Q9GZV5 1-400)
binding [6]: no binding (condition: cells under hypoxia stimuli)
